These are yes or no findings as the source states them, for the method shown. In cells and extracts the contact can be indirect. Some results given as binding are weak or reduced against the parent protein; the word gives no strength. For part of these data: Tags and fused reporters may be left off the sequences shown.
What was measured:
[1] = molecular target: endogenous human ATF4 (post-mortem brain) (human) (UniProt P18848); test: proximity ligation assay, human substantia nigra sections
[2] = molecular target: endogenous human ATF4 (post-mortem brain) (human) (UniProt P18848); test: co-IP (anti-CREB3L2 IP, ATF4 blot), human prefrontal cortex
[3] = molecular target: endogenous human ATF4 (post-mortem brain) (human) (UniProt P18848); test: proximity ligation assay, human prefrontal cortex sections
[4] = molecular target: endogenous human ATF4 (post-mortem brain) (human) (UniProt P18848); test: co-IP (anti-ATF4 IP, CREB3L2 blot), human prefrontal cortex
[5] = molecular target: endogenous human ATF4 (post-mortem brain) (human) (UniProt P18848); test: proximity ligation assay, human AD prefrontal cortex sections, neurofilament co-stain
[6] = molecular target: endogenous human ATF4 (post-mortem brain) (human) (UniProt P18848); test: proximity ligation assay, human AD prefrontal cortex sections
[7] = molecular target: T1, endogenous rat ATF4 (hippocampal/cortical neurons) (rat) (UniProt Q9ES19); test: co-IP (anti-CREB3L2 IP, ATF4 blot), rat neuritic extracts
T1 sequence (looked up): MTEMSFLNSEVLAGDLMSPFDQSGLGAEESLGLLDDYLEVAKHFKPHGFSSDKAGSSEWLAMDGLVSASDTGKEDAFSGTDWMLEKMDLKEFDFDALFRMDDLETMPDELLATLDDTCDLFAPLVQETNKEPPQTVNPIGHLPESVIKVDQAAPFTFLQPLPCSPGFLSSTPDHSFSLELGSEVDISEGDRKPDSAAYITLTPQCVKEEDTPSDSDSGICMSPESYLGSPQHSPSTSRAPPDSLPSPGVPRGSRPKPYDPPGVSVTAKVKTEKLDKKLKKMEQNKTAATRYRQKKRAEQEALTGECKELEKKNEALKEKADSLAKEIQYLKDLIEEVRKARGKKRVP

Sequences of proteins named here, by UniProt entry; tags and fusion partners are left off.
UniProt P18848: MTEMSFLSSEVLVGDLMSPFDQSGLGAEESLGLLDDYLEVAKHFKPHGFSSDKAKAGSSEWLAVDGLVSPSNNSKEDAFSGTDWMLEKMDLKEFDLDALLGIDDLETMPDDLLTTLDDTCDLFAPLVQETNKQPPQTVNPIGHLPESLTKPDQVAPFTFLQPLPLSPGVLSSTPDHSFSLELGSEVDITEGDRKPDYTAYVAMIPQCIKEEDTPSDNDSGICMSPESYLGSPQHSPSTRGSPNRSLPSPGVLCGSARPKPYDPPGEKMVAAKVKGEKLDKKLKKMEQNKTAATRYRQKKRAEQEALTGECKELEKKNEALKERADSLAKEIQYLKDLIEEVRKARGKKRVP

[8] = molecular target: T1, endogenous rat ATF4 (hippocampal/cortical neurons) (rat); test: proximity ligation assay, rat hippocampal neurons treated with α-synuclein pre-formed fibrils
[9] = molecular target: T1, endogenous rat ATF4 (hippocampal/cortical neurons) (rat); test: proximity ligation assay, axons, emetine
[10] = molecular target: T1, endogenous rat ATF4 (hippocampal/cortical neurons) (rat); test: proximity ligation assay, axons, ciliobrevin A
[11] = molecular target: T1, endogenous rat ATF4 (hippocampal/cortical neurons) (rat); test: co-IP, rat neuritic extracts
[12] = molecular target: T1, endogenous rat ATF4 (hippocampal/cortical neurons) (rat); test: co-IP, rat neurite lysates
[13] = molecular target: T1, endogenous rat ATF4 (hippocampal/cortical neurons) (rat); test: proximity ligation assay, axons, with or without emetine
[14] = molecular target: T1, endogenous rat ATF4 (hippocampal/cortical neurons) (rat); test: proximity ligation assay, axons of rat hippocampal neurons in microfluidic chambers
[15] = molecular target: T1, endogenous rat ATF4 (hippocampal/cortical neurons) (rat); test: proximity ligation assay, axons, nelfinavir
[16] = molecular target: T1, endogenous rat ATF4 (hippocampal/cortical neurons) (rat); test: proximity ligation assay, rat hippocampal neurons
[17] = molecular target: T1, endogenous rat ATF4 (hippocampal/cortical neurons) (rat); test: proximity ligation assay, dissociated rat hippocampal neurons
[18] = molecular target: T1, endogenous rat ATF4 (hippocampal/cortical neurons) (rat); test: proximity ligation assay, axons of rat hippocampal neurons
[19] = molecular target: T1, endogenous rat ATF4 (hippocampal/cortical neurons) (rat); test: proximity ligation assay, axons, Aβ42 plus nelfinavir
[20] = molecular target: T1, endogenous rat ATF4 (hippocampal/cortical neurons) (rat); test: co-IP (anti-CREB3L2 IP, ATF4 blot), rat neurite lysates
[21] = molecular target: T1, endogenous rat ATF4 (hippocampal/cortical neurons) (rat); test: proximity ligation assay, axons, Aβ1-42 plus nelfinavir
[22] = molecular target: T2, endogenous mouse ATF4 (5xFAD / wild-type hippocampus) (mouse) (UniProt Q06507); test: proximity ligation assay, mouse brain sections (5xFAD against age-matched controls)
T2 sequence (looked up): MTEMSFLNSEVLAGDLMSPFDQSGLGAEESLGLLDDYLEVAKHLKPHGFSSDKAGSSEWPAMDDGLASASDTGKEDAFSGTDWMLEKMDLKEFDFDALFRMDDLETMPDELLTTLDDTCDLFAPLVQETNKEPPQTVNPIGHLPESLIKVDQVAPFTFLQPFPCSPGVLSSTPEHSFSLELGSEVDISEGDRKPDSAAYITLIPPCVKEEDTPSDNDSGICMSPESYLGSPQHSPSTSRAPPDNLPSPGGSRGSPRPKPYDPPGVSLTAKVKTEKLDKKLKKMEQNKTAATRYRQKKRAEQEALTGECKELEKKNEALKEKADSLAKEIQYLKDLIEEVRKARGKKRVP

[23] = molecular target: T2, endogenous mouse ATF4 (5xFAD / wild-type hippocampus) (mouse); test: proximity ligation assay, mouse brain sections
[24] = molecular target: FLAG-tagged H. sapiens ATF4 (H. sapiens) (UniProt P18848); test: co-IP in HEK293 cells
[25] = molecular target: FLAG-tagged H. sapiens ATF4 (H. sapiens) (UniProt P18848); test: co-IP of in vitro translated proteins, rabbit reticulocyte lysate
[26] = molecular target: FLAG-tagged H. sapiens ATF4 (H. sapiens) (UniProt P18848); test: co-IP (anti-ATF4 IP, anti-GFP blot) of in vitro translated proteins, rabbit reticulocyte lysate
[27] = molecular target: FLAG-tagged H. sapiens ATF4 (H. sapiens) (UniProt P18848); test: co-IP, in vitro translated and HEK293-overexpressed proteins
[28] = molecular target: FLAG-tagged H. sapiens ATF4 (H. sapiens) (UniProt P18848); test: co-IP, in vitro translated or overexpressed tagged proteins
[29] = molecular target: FLAG-tagged H. sapiens ATF4 (H. sapiens) (UniProt P18848); test: co-IP of in vitro translated proteins
[30] = molecular target: FLAG-tagged H. sapiens ATF4 (H. sapiens) (UniProt P18848); test: co-IP in HEK293 cells (overexpression model)

Measured: binding

B1: endogenous human CREB3L2 (post-mortem brain) (protein, UniProt Q70SY1 1-520, looked up)
chain: MEVLESGEQGVLQWDRKLSELSEPGDGEALMYHTHFSELLDEFSQNVLGQLLNDPFLSEKSVSMEVEPSPTSPAPLIQAEHSYSLCEEPRAQSPFTHITTSDSFNDDEVESEKWYLSTDFPSTSIKTEPVTDEPPPGLVPSVTLTITAISTPLEKEEPPLEMNTGVDSSCQTIIPKIKLEPHEVDQFLNFSPKEAPVDHLHLPPTPPSSHGSDSEGSLSPNPRLHPFSLPQTHSPSRAAPRAPSALSSSPLLTAPHKLQGSGPLVLTEEEKRTLIAEGYPIPTKLPLSKSEEKALKKIRRKIKNKISAQESRRKKKEYMDSLEKKVESCSTENLELRKKVEVLENTNRTLLQQLQKLQTLVMGKVSRTCKLAGTQTGTCLMVVVLCFAVAFGSFFQGYGPYPSATKMALPSQHSLQEPYTASVVRSRNLLIYEEHSPPEESSSPGSAGELGGWDRGSSLLRVSGLESRPDVDLPHFIISNETSLEKSVLLELQQHLVSAKLEGNETLKVVELDRRVNTTF
binds: [1] | [2] | [3] | [4] | [5] | [6]

B2: endogenous rat CREB3L2 (hippocampal/cortical neurons) (protein, UniProt Q6QDP7 1-521, looked up)
chain: MEVLESGEQSVLQWDRKLSELSEPGETEALMYHTHFSELLDEFSQNVLGQLLNDPFLSEKSVSMEVEPSPTSPAPLIQAEHSYSLSEEPRAQSPFTHVAASDGFNDEEVESEKWYLSTEFPSATIKTEPITEEQPPGLVPSVTLTITAISTPFEKEESPLDMSAGGDSSCQTLIPKIKLEPHEVDQFLNFSPKEASVDQLHLPPTPPSSHSSDSEGSLSPNPRLHPFSLSQAHSPGRAMPRGPSALSTSPLLTAPHKLQGSGPLVLTEEEKRTLIAEGYPIPTKLPLTKSEEKALKKIRRKIKNKISAQESRRKKKEYMDSLEKKVESCSTENLELRKKVEVLENTNRTLLQQLQKLQTLVMGKVSRTCKLAGTQTGTCLMVVVLCFAVAFGSLFQGYGLYPSATKMALPSQHPLSEPYTASVVRSRNLLIYEEHSSLEESSSPASAGELGGWDRGSSLLRASSGLEALPEVDLPHFIISKETSLEKSVLLELQQHLVSSKLEGNETLKVVELERRVNATF
binds: [7] | [8] | [9] | [10] | [11] | [12] | [13] | [14] | [15] | [16] | [17] | [18] | [19] | [20] | [21]

B3: endogenous mouse CREB3L2 (5xFAD / wild-type hippocampus) (protein, UniProt Q8BH52 1-521, looked up)
chain: MEVLESGEQSVLQWDRKLSELSEPGETEALMYHTHFSELLDEFSQNVLGQLLSDPFLSEKSESMEVEPSPTSPAPLIQAEHSYSLSEEPRTQSPFTHAATSDSFNDEEVESEKWYLSTEFPSATIKTEPITEEQPPGLVPSVTLTITAISTPFEKEESPLDMNAGGDSSCQTLIPKIKLEPHEVDQFLNFSPKEASVDQLHLPPTPPSSHSSDSEGSLSPNPRLHPFSLSQAHSPARAMPRGPSALSTSPLLTAPHKLQGSGPLVLTEEEKRTLVAEGYPIPTKLPLTKSEEKALKKIRRKIKNKISAQESRRKKKEYMDSLEKKVESCSTENLELRKKVEVLENTNRTLLQQLQKLQTLVMGKVSRTCKLAGTQTGTCLMVVVLCFAVAFGSFFQGYGPYPSATKMALPSQHPLSEPYTASVVRSRNLLIYEEHAPLEESSSPASAGELGGWDRGSSLLRASSGLEALPEVDLPHFLISNETSLEKSVLLELQQHLVSSKLEGNETLKVVELERRVNATF
binds: [22] | [23]

B4: GFP-tagged H. sapiens CREB3L2, cleaved (activated) form (protein, UniProt Q70SY1 1-384, looked up, not shown: large carriers)
chain: MEVLESGEQGVLQWDRKLSELSEPGDGEALMYHTHFSELLDEFSQNVLGQLLNDPFLSEKSVSMEVEPSPTSPAPLIQAEHSYSLCEEPRAQSPFTHITTSDSFNDDEVESEKWYLSTDFPSTSIKTEPVTDEPPPGLVPSVTLTITAISTPLEKEEPPLEMNTGVDSSCQTIIPKIKLEPHEVDQFLNFSPKEAPVDHLHLPPTPPSSHGSDSEGSLSPNPRLHPFSLPQTHSPSRAAPRAPSALSSSPLLTAPHKLQGSGPLVLTEEEKRTLIAEGYPIPTKLPLSKSEEKALKKIRRKIKNKISAQESRRKKKEYMDSLEKKVESCSTENLELRKKVEVLENTNRTLLQQLQKLQTLVMGKVSRTCKLAGTQTGTCLMVVV
binds: [24] | [25] | [26] | [27] | [28] | [29] | [30]

From patent US20250027085A1, “COMPOSITIONS AND METHODS FOR TREATING ALZHEIMER'S DISEASE UTILIZING A TRANSCRIPTIONAL MASTER REGULATOR OF THE RETROMER COMPLEX” (THE TRUSTEES OF COLUMBIA UNIVERSITY IN THE CITY OF NEW YORK, priority 2022, published 2025)
